Results are given in words; binding and its absence hold for the method and conditions named. Binding seen in cells or lysates may run through a third protein. Some binding calls cover weakened binding; strength is not graded here.

Protein sequences, listed by entry. Tags and fused reporters are not part of them.
UniProt P03372: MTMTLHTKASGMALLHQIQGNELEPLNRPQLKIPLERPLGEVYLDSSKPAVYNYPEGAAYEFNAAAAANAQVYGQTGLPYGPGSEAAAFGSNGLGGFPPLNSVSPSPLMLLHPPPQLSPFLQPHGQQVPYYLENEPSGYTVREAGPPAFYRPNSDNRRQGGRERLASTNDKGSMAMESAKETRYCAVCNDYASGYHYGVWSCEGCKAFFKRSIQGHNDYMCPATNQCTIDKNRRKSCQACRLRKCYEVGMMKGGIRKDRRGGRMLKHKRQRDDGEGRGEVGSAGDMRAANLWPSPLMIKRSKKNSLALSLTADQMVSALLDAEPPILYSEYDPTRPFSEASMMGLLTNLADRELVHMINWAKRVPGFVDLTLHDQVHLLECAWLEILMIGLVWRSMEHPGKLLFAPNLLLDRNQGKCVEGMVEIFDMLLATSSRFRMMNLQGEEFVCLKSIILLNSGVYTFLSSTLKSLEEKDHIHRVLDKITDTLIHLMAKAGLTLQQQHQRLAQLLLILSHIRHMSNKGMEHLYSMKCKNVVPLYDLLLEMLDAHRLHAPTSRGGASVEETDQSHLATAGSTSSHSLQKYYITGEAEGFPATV
UniProt O75116: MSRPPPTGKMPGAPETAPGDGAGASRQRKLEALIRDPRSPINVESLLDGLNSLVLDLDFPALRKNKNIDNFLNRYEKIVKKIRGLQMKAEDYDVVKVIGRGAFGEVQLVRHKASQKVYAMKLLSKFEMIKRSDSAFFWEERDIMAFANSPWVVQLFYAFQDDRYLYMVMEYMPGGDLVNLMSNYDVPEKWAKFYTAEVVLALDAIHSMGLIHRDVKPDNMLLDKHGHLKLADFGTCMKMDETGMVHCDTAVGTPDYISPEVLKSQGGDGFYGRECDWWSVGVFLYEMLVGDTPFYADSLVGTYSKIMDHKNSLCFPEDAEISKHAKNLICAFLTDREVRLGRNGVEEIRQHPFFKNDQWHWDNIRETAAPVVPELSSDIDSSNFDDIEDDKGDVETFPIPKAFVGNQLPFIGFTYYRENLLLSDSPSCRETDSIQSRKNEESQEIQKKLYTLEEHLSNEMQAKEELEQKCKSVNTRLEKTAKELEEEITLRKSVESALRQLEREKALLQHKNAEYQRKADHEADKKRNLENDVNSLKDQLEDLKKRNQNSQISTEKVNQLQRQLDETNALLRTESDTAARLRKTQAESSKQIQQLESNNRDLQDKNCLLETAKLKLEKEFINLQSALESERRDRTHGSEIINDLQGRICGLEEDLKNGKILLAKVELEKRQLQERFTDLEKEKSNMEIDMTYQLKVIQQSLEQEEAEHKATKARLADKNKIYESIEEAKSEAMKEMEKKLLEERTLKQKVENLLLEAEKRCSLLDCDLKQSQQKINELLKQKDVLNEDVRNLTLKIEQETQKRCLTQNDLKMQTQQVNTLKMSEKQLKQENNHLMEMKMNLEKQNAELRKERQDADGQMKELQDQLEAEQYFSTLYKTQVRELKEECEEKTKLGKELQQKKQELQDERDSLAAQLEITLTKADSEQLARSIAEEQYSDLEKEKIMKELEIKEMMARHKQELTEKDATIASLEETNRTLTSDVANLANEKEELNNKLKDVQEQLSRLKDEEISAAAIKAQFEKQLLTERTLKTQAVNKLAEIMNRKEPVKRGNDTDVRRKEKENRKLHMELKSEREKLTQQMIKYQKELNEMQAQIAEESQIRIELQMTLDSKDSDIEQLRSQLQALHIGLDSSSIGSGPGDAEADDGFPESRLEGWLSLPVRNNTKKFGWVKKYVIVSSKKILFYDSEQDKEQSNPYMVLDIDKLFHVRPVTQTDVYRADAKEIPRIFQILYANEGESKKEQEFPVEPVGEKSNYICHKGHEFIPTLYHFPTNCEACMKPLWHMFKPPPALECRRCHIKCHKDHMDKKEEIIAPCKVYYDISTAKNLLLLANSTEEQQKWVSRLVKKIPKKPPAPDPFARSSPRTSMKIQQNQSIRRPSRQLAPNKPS

In assay [1] the target is estrogen receptor alpha (human (endogenous in HUVEC)) (UniProt P03372). As to the kind of experiment: condition: only cells pretreated with 10 μM ICI 182,780 for 2 h; co-IP; HUVEC protein extracts immunoprecipitated with anti-ERα antibody, blotted for ROCK-II; cells pretreated with 10 μM ICI 182,780 for 2 h, washout, then 0.1% DMSO or 50 μM formononetin for 30 and 60 min.

Assay [2] shares this target. Description: co-IP; HUVEC protein extracts immunoprecipitated with anti-ERα antibody (1 μg, overnight, 4 °C, Protein G agarose), blotted for ROCK-II; cells treated with 0.1% DMSO or 50 μM formononetin for 15, 30, 45 and 60 min.

Turning to “Rho-associated protein kinase ROCK-II (from UniProt O75116 1-1388) (enzyme)”, the binding entry was “no binding” in assay [1] and “binds” in assay [2].
